Test results published in paper PMC7247549, “Biochemical Convergence of Mitochondrial Hsp70 System Specialized in Iron–Sulfur Cluster Biogenesis” (International Journal of Molecular Sciences, 2020).

Legend:
[1] = molecular target: T1, Isu1-GST fusion protein (S. cerevisiae) (UniProt Q03020); assay: pull-down; Isu1-GST (30 μM) incubated with increasing Ssq1, 4 mM ATP, PD buffer, 15 min at 25 °C, then glutathione resin; SDS-PAGE, Coomassie, densitometry; both purified
T1 sequence: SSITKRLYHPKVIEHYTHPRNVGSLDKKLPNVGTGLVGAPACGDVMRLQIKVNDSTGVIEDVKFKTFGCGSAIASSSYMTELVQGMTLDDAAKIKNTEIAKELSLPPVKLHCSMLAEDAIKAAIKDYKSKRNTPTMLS

[2] = molecular target: T1, Isu1-GST fusion protein (S. cerevisiae); assay: pull-down; Isu1-GST (2.5 μM) with Ssq1 (4 μM), 4 mM ATP and increasing Hsc20 (0.0025-0.25 μM), PD buffer, 15 min at 25 °C, then glutathione resin; bound Ssq1 by densitometry; both purified

Ssq1 (S. cerevisiae)
binding [1]: binds
binding [2]: binds

These are yes or no findings as the source states them, for the method shown. A result given as binding can be weak or reduced; the word gives no strength. Sequences can lack the tags named with a protein.
